Source: US6436992B1, “Use of fumaric acid derivatives” (Fumapharm AG, priority 1997, dated 2002)
At least one compound was matched to its structure with a doubt left.

Tested on: haemagglutinin formation in mice
Assay: Inhibition of haemagglutinin formation in mice immunised with sheep erythrocytes, after peroral administration
Type: in vivo
Details: applied days 0-4, haemagglutinin levels on day 9

## COC(=O)/C=C/C(=O)[O-].[Ca+] [Methyl hydrogen fumarate-Ca salt]
150 mg/kg bodyweight p.o.
  Proportion of the serum titres control/verum group: 11.1/12.8
600 mg/kg bodyweight p.o.
  Proportion of the serum titres control/verum group: 7.9/12.8
